Assay results as given in the supplement of paper PMC4604168 (melanoma cell lines).
This is one part of the list. Many values rest on one well or one pass, so single values are uncertain.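 Cells were imaged in 1,536-well plates, and nuclei stained with an antibody against cleaved PARP were counted against all DNA-stained nuclei to give the apoptosis fraction. Screening doses were chosen to leave most cells alive, and resting and induced cleaved-PARP levels differ strongly between cell lines.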

Assays:
Test in all cases: cleaved PARP positive nuclei fraction relative to DMSO control; melanoma cells; higher = more apoptosis
Details in all cases: library dose: low library concentration; 72 h
501Mel = tested on: 501Mel
A101D = tested on: A101D
A2058 = tested on: A2058
C32 = tested on: C32
CBRC008 = tested on: CBRC008 (line from a melanoma biopsy)
CBRC014 = tested on: CBRC014 (line from a melanoma biopsy)
CBRC016 = tested on: CBRC016 (line from a melanoma biopsy)
CBRC017 = tested on: CBRC017 (line from a melanoma biopsy)

Row | Structure (SMILES) | cleaved PARP positive nuclei fraction (501Mel) | cleaved PARP positive nuclei fraction (A101D) | cleaved PARP positive nuclei fraction (A2058) | cleaved PARP positive nuclei fraction (C32) | cleaved PARP positive nuclei fraction (CBRC008) | cleaved PARP positive nuclei fraction (CBRC014) | cleaved PARP positive nuclei fraction (CBRC016) | cleaved PARP positive nuclei fraction (CBRC017)
1 | C[C@]12O[C@H](C[C@]1(O)CO)n1c3ccccc3c3c4c(c5c6ccccc6n2c5c31)CNC4=O [Lestaurtinib] + O=S(=O)(c1ccccc1)N(CC(F)(F)F)c1ccc(C(O)(C(F)(F)F)C(F)(F)F)cc1 [T0901317] (first compound 0.004 µM, partner dose 1.4 µM) | 176% | 45.2% | 90.5% | 82.9% | 153% | 181% | 104% | 81.8%
2 | C[C@]12O[C@H](C[C@]1(O)CO)n1c3ccccc3c3c4c(c5c6ccccc6n2c5c31)CNC4=O [Lestaurtinib] + COc1cc(N2CCC(N3CCN(C)CC3)CC2)ccc1Nc1ncc(Cl)c(Nc2ccccc2S(=O)(=O)C(C)C)n1 [NVP-TAE684] (first compound 0.004 µM, partner dose 0.08 µM) | 216% | 33.7% | 51% | 184% | 52.1% | 93.2% | 57.1% | 77.7%
3 | Cc1cc(Nc2cc(N3CCN(C)CC3)nc(Sc3ccc(NC(=O)C4CC4)cc3)n2)n[nH]1 [Tozasertib] + O=C(Oc1ccc([N+](=O)[O-])cc1)N1CCC(C(O)(c2ccc3c(c2)OCO3)c2ccc3c(c2)OCO3)CC1 [JZL184] (first compound 0.006 µM, partner dose 1 µM) | 36.2% | 19.6% | 54.5% | 225% | 285% | 102% | 36% | 69.5%
4 | CCCCCCCCc1ccc(CCC(N)(CO)CO)cc1 [fingolimod] + Cc1cc(SCc2sc(-c3ccc(C(F)(F)F)c(F)c3)nc2C)ccc1OCC(=O)O [GW0742] (first compound 2 µM, partner dose 2 µM) | 321% | 24.6% | 25.1% | 129% | 75.4% | 120% | 54.7% | 103%
5 | C[C@]12O[C@H](C[C@]1(O)CO)n1c3ccccc3c3c4c(c5c6ccccc6n2c5c31)CNC4=O [Lestaurtinib] + CCN(CC)CCCCNc1ncc2cc(-c3cc(OC)cc(OC)c3)c(NC(=O)NC(C)(C)C)nc2n1 [PD173074] (first compound 0.004 µM, partner dose 0.1 µM) | 77.1% | 31.9% | 110% | 61.1% | 265% | 109% | 18.6% | 62.2%
6 | Cn1cc(C2=C(c3cn(C4CCN(Cc5ccccn5)CC4)c4ccccc34)C(=O)NC2=O)c2ccccc21 [Enzastaurin] + CCCCCCCCCCCC1=C(O)C(=O)C=C(O)C1=O [Embelin] (first compound 0.8 µM, partner dose 1.2 µM) | 36.6% | 27.6% | 61% | 82.7% | 104% | 95% | 61% | 85.1%
